## Melanoma cell counts after drug treatment

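Human melanoma cells were exposed to two drugs together for 72 h in 1,536-well plates and read by automated microscopy after fixing and staining. Values are the number of DAPI-stained nuclei as a percentage of the DMSO control: 100 is no effect, lower means fewer cells. Every drug was used at one fixed concentration, the higher of two screened. These are primary screening values without error estimates.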
Only some of the drugs and lines screened are listed, without regard to their results.
A dash means that no value is listed here.

Compounds and concentrations:
nilutamide (5000 nM): CC1(C)NC(=O)N(c2ccc([N+](=O)[O-])c(C(F)(F)F)c2)C1=O
GW441756 (2000 nM): Cn1cc(/C=C2\C(=O)Nc3cccnc32)c2ccccc21
palbociclib (200 nM): CC(=O)c1c(C)c2cnc(Nc3ccc(N4CCNCC4)cn3)nc2n(C2CCCC2)c1=O
GW2580 (5000 nM): COc1ccc(COc2ccc(Cc3cnc(N)nc3N)cc2OC)cc1
STA-4783 (30 nM): CN(NC(=O)CC(=O)NN(C)C(=S)c1ccccc1)C(=S)c1ccccc1
everolimus (100 nM): CO[C@H]1C[C@@H]2CC[C@@H](C)[C@@](O)(O2)C(=O)C(=O)N2CCCC[C@H]2C(=O)O[C@H]([C@H](C)C[C@@H]2CC[C@@H](OCCO)[C@H](OC)C2)CC(=O)[C@H](C)/C=C(\C)[C@@H](O)[C@@H](OC)C(=O)[C@H](C)C[C@H](C)/C=C/C=C/C=C/1C
KU-55933 (5000 nM): O=c1cc(-c2cccc3c2Sc2ccccc2S3)oc(N2CCOCC2)c1
vorinostat (400 nM): O=C(CCCCCCC(=O)Nc1ccccc1)NO
ruxolitinib (5000 nM): N#CC[C@H](C1CCCC1)n1cc(-c2ncnc3[nH]ccc23)cn1
SNS-314 (4 nM): O=C(Nc1cccc(Cl)c1)Nc1ncc(CCNc2ncnc3ccsc23)s1
vincristine (0.5 nM): CC[C@]1(O)C[C@H]2CN(CCc3c([nH]c4ccccc34)[C@@](C(=O)OC)(c3cc4c(cc3OC)N(C=O)[C@H]3[C@@](O)(C(=O)OC)[C@H](OC(C)=O)[C@]5(CC)C=CCN6CC[C@]43[C@@H]65)C2)C1
nilotinib (1000 nM): Cc1cn(-c2cc(NC(=O)c3ccc(C)c(Nc4nccc(-c5cccnc5)n4)c3)cc(C(F)(F)F)c2)cn1
pioglitazone (10000 nM): CCc1ccc(CCOc2ccc(CC3SC(=O)NC3=O)cc2)nc1 (stereo unspecified)
AS-252424 (5000 nM): O=C1NC(=O)/C(=C/c2ccc(-c3ccc(F)cc3O)o2)S1
tipifarnib (50 nM): Cn1cncc1[C@@](N)(c1ccc(Cl)cc1)c1ccc2c(c1)c(-c1cccc(Cl)c1)cc(=O)n2C

| Combination | COLO 829 | COLO 792 | C32 | WM3619 | COLO 800 | WM451Lu |
|---|---|---|---|---|---|---|
| STA-4783 and tipifarnib | - | - | - | 5.8 | - | 46.5 |
| nilutamide and palbociclib | 80.4 | 40.7 | 59.9 | 51.2 | 64.0 | 51.2 |
| KU-55933 and nilotinib | - | - | 93.3 | - | - | 87.8 |
| everolimus and vincristine | 62.4 | 49.2 | 66.9 | - | 91.8 | - |
| GW441756 and pioglitazone | 73.2 | 101 | 86.6 | - | 135 | - |
| vorinostat and AS-252424 | 76.5 | 70.0 | 94.1 | 65.5 | 60.1 | 76.6 |
| GW2580 and pioglitazone | - | 112 | - | 74.5 | - | 106 |
| ruxolitinib and SNS-314 | - | - | 58.9 | - | - | - |

Data from the primary screen of doi:10.1371/journal.pone.0140310, rounded.